# Test results published in PubChem BioAssay AID256 (DTP/NCI, 2004).
# The list does not hold the whole screen: it is rich in T/C values a quarter to a half above the control, in often repeated tests (any T/C) and in doses without a T/C. Further doses and runs are listed elsewhere. T/C: endpoint of the treated group in % of that of the vehicle group. Some doses have a count of surviving animals in place of a T/C: the source files T/C as zero there, which appears to mark a toxic dose or a test without result, not a measured value. Some doses without a T/C left all or most animals alive at the check, yet need not have been tolerated: the source hardly ever lists a survival T/C far under the control, and the zero likely stands for such cases as well. Counts of survivors are from the toxicity check (mostly the fifth day) where no day follows; animals may have died later. Schedule codes are those of the source, read here as Q, the interval in days (D) or hours (H), X, the number of doses. Some structures stand for samples that the source files as different forms (salt, stereo form or complex); doses refer to the form tested. Brackets with × say how often a value occurs here. For survival time, this PubChem deposit counts one and a half times the control or more as active, and values a quarter to a half above the control carry no call in these data; other NCI protocols may use other cut-offs. Some T/C values are followed by the survivors on the day toxicity was checked, most often the fifth; without a count, all were alive then.
# Test system: CD2F1 mice, L1210 leukemia ip, survival T/C
# Experiment: NCI In Vivo Anticancer Drug Screen. Data for tumor model L1210 Leukemia (intraperitoneal) in CD2F1 (CDF1) mice
# Conditions: T/C endpoint: mean survival time, higher T/C = longer survival
# Procedure, shortened: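 Mice carrying a transplanted tumor received test compound or vehicle alone. The value is the measurement in the treated group divided by that in the vehicle-treated control group.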
# [1] = dose: 54.0 mg/kg/injection, schedule: Q01DX001 (iv), vehicle: saline
compound,measurement,setting,value
O=C1c2ccccc2C(=O)c2c(NCCNCCO)ccc(NCCNCCO)c21,T/C,"dose: 1.0 mg/kg/injection, schedule: Q01DX009 (ip), vehicle: clinical formulation",131 % of control
same,T/C,"dose: 1.0 mg/kg/injection, schedule: Q01DX009 (ip), vehicle: saline",130 % of control
same,T/C,"dose: 1.75 mg/kg/injection, schedule: Q01DX009 (ip), vehicle: Klucel (hydroxypropylcellulose) (HPC)",133 % of control [5 of 6 alive]
same,T/C,"dose: 2.0 mg/kg/injection, schedule: Q01DX009 (ip), vehicle: acid diluted with saline",148 % of control
same,T/C,"dose: 2.0 mg/kg/injection, schedule: Q01DX009 (ip), vehicle: clinical formulation",139 % of control
same,T/C,"dose: 2.0 mg/kg/injection, schedule: Q01DX009 (ip), vehicle: water",126 % of control
same,T/C,"dose: 2.5 mg/kg/injection, schedule: Q01DX009 (ip), vehicle: saline",140 % of control
same,T/C,"dose: 4.0 mg/kg/injection, schedule: Q01DX005 (ip), vehicle: saline",131 % of control
same,T/C,"dose: 4.0 mg/kg/injection, schedule: Q01DX009 (ip), vehicle: water",146 % of control
same,T/C,"dose: 8.0 mg/kg/injection, schedule: Q01DX005 (ip), vehicle: saline",149 % of control
same,T/C,"dose: 8.0 mg/kg/injection, schedule: Q01DX005 (iv), vehicle: saline",132 % of control
same,T/C,"dose: 8.0 mg/kg/injection, schedule: Q04DX003 (ip), vehicle: saline",134 % of control
same,T/C,"dose: 16.0 mg/kg/injection, schedule: Q01DX005 (iv), vehicle: saline, evaluated on day 30",147 % of control
same,T/C,"dose: 16.0 mg/kg/injection, schedule: Q01DX005 (iv), vehicle: saline, evaluated on day 60",148 % of control
same,T/C,"dose: 16.0 mg/kg/injection, schedule: Q01DX009 (ip), vehicle: saline with Tween-80",131 % of control
same,T/C,"dose: 16.0 mg/kg/injection, schedule: Q04DX003 (ip), vehicle: saline",137 % of control
same,T/C,"dose: 19.4 mg/kg/injection, schedule: Q01DX001 (ip), vehicle: saline",136 % of control
same,T/C,"dose: 21.0 mg/kg/injection, schedule: Q01DX009 (ip), vehicle: saline",126 % of control
same,survivor count,"dose: 32.0 mg/kg/injection, schedule: Q01DX005 (iv), vehicle: clinical formulation",4 of 8
same,survivor count,"dose: 32.0 mg/kg/injection, schedule: Q01DX005 (iv), vehicle: saline",4 of 8
same,survivor count,"dose: 32.0 mg/kg/injection, schedule: Q01DX009 (ip), vehicle: acid diluted with saline",6 of 6 (2×)
same,T/C,"dose: 32.0 mg/kg/injection, schedule: Q01DX009 (ip), vehicle: water",128 % of control
same,survivor count,"dose: 32.0 mg/kg/injection, schedule: Q04DX003 (ip), vehicle: water",5 of 6
same,T/C,"dose: 32.0 mg/kg/injection, schedule: Q04DX003 (iv), vehicle: saline",142 % of control
same,T/C,"dose: 42.0 mg/kg/injection, schedule: Q01DX009 (ip), vehicle: Klucel (hydroxypropylcellulose) (HPC)",134 % of control
same,T/C,[1],129 % of control [9 of 10 alive]
same,survivor count,[1],6 of 6
same,T/C,"dose: 62.5 mg/kg/injection, schedule: Q01DX009 (ip), vehicle: Klucel (hydroxypropylcellulose) (HPC)",134 % of control
same,survivor count,"dose: 64.0 mg/kg/injection, schedule: Q01DX005 (iv), vehicle: saline",0 of 10
same,survivor count,"dose: 64.0 mg/kg/injection, schedule: Q01DX009 (ip), vehicle: saline with Tween-80",4 of 6
same,survivor count,"dose: 64.0 mg/kg/injection, schedule: Q01DX009 (ip), vehicle: water",5 of 6
same,survivor count,"dose: 64.0 mg/kg/injection, schedule: Q04DX003 (ip), vehicle: water",4 of 6
same,survivor count,"dose: 64.0 mg/kg/injection, schedule: Q04DX003 (iv), vehicle: saline",0 of 10
same,T/C,"dose: 90.0 mg/kg/injection, schedule: Q01DX001 (ip), vehicle: saline",136 % of control [7 of 8 alive]
same,survivor count,"dose: 90.0 mg/kg/injection, schedule: Q01DX001 (iv), vehicle: saline",2 of 10
same,survivor count,"dose: 128.0 mg/kg/injection, schedule: Q01DX009 (ip), vehicle: saline with Tween-80",2 of 6
